# In patent US11529359B2, “Use of GABAA receptor modulators for treatment of itch” (UNIVERSITÄT ZÜRICH, priority 2016, dated 2022):
# System: brain membranes prepared from α1,2,3,5 H→R point mutated mice
# Assay type: binding, mice (RRRR)
# Conditions: 4 nM [3H]Ro 15-4513; increasing concentrations; n=4
# Method: The supernatant was centrifuged for 20 min at 30,000 g and the resulting crude membrane pellet was washed once with buffer. […] Non-specific [^3H]Ro 15-4513 binding was assessed by addition of 10 μM flumazenil to the reaction. Incubation was stopped by rapid vacuum filtration using a semiautomatic cell harvester (Skatron Instruments) and washed filters were subjected to liquid scintillation counting.
structure (smiles),measurement,value
"CN1C(=O)CN=C(c2ccccc2)c2cc(Cl)ccc21 [DZP, Diazepam]",displacement of [3H]Ro 15-4513 binding,The same was confirmed
